Source: publication PMC4692527
No constants are given. Whether binding was seen depends on the method and setting. Binding can be weak; no strength is given.

T1: M13 phage-displayed PEP1 (Class I clones)
T1 sequence: SYLPETIYEYRL

T2: M13 phage-displayed PEP2 (Class II clones)
T2 sequence: VENKTRYHDREV

T3: M13 phage-displayed PEP3 (Class III clone)
T3 sequence: HEGAWHNYARSV

T4: M13 phage-displayed PEP4 (Class IV clone)
T4 sequence: SNGRVAD


Assays:
[1] = target: T1, M13 phage-displayed PEP1 (Class I clones); assay: far-Western, overlay or dot blot; M13 phage clones adsorbed onto nitrocellulose and hybridized to purified His-tagged FvTox1; FvTox1 detected with an anti-His antibody; only the binder purified
[2] = target: T2, M13 phage-displayed PEP2 (Class II clones); assay: as above
[3] = target: T3, M13 phage-displayed PEP3 (Class III clone); assay: as above
[4] = target: T4, M13 phage-displayed PEP4 (Class IV clone); assay: as above
[5] = target: FvTox1 (His-tagged at C-terminus), expressed in an insect cell line (Fusarium virguliforme); assay: far-Western, overlay or dot blot; 3 μl FvTox1 (100 ng/μl) dried on nitrocellulose strips; incubated overnight at 4°C with a phage clone (1×10^14 pfu) in PBS; detected with anti-M13 monoclonal antibody; both purified

Molecule	binding [5]	further results
FvTox1 (His-tagged at C-terminus), expressed in an insect cell line (Fusarium virguliforme)		binding [1]: binds; binding [2]: binds; binding [3]: binds; binding [4]: binds
HEGAWHNYARSV [M13 phage-displayed PEP3 (Class III clone)]	binds	
SNGRVAD [M13 phage-displayed PEP4 (Class IV clone)]	binds	
SYLPETIYEYRL [M13 phage-displayed PEP1 (Class I clones)]	binds	
VENKTRYHDREV [M13 phage-displayed PEP2 (Class II clones)]	binds	
